Measurements published in publication PMC3422239.
Results are given in words; binding and its absence hold for the method and conditions named. A result given as binding can be weak or reduced; the word gives no strength. Sequences can lack the tags named with a protein.

Columns and labels:
[1] = biological target: T1, GFP-IRS2-301-600 (mouse) (UniProt P81122); test: far-Western, overlay or dot blot; GFP-tagged IRS-2 pulled down with GFP-Trap from HEK293 or Flp-In HEK293 lysates, SDS-PAGE, nitrocellulose; membrane incubated overnight at 4°C with 14-3-3ζ-HRP, ECL; cells serum starved, IGF-1, or PI-103, wortmannin or Akti-1/2 before IGF-1; both purified
T1 sequence: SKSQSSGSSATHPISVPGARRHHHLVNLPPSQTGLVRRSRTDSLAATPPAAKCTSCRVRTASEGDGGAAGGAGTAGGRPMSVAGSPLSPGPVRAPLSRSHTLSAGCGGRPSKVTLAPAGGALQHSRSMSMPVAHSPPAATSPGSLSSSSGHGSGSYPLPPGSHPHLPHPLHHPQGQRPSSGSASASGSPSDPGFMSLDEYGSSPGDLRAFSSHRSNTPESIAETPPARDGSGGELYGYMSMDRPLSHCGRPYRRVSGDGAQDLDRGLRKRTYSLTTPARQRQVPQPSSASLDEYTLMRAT

[2] = biological target: T2, GFP-IRS2-T401A (mouse) (UniProt P81122); test: as above
T2 sequence: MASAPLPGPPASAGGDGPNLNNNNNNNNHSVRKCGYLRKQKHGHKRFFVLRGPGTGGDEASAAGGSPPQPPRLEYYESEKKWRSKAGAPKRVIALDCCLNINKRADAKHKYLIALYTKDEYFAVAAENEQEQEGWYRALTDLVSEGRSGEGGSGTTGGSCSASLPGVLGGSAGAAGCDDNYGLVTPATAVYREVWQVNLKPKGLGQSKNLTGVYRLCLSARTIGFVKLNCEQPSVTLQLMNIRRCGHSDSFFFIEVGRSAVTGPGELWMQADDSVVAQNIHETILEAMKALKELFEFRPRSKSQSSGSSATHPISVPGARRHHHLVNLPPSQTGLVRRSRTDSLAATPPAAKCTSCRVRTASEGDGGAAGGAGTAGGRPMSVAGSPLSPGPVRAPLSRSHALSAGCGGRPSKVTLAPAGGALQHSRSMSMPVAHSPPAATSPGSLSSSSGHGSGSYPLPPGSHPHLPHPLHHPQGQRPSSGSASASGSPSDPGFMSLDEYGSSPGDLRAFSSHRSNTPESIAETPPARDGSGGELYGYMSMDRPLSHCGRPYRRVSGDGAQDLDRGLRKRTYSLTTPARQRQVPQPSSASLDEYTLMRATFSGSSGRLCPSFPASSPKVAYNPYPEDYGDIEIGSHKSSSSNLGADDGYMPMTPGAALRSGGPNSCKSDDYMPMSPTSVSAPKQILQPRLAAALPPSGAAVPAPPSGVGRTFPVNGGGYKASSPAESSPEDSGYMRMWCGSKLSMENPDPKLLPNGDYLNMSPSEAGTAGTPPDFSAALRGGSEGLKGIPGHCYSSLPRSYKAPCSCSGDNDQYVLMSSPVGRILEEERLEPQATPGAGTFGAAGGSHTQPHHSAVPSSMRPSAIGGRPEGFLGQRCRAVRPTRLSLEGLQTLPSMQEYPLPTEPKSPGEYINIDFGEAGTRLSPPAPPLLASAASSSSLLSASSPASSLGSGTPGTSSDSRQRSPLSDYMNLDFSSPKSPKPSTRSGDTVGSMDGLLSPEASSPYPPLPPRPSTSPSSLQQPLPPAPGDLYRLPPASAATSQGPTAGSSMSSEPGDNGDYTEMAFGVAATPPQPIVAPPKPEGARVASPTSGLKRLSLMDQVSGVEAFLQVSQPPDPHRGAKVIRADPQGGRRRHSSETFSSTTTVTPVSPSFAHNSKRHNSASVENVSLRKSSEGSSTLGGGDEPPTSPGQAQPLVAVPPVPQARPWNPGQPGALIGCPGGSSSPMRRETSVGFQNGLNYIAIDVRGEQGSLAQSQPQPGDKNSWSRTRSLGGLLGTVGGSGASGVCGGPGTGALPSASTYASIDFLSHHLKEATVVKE

binding [1]: binds
binding [2]: binds
Substance: Recombinant human 14-3-3ζ-HRP
